Results deposited as PubChem BioAssay AID1259254 (NCATS, 2017).
This is a random part of about 59,000 deposited reagents. Over the whole deposit, about 1,550 (2.6%) got an active call. 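G2 share is only a proxy for re-replication; each gene was hit by three separate siRNAs, and active genes were retested.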 Entries without a mark were called inactive. Reagents against one gene are numbered here. Not all columns of the deposit are shown. The record does not give: the amount of reagent.

Assay: 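Gene knock-downs that lead to re-replication, shown by excess G2 DNA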 (primary screen)
Cells: human HCT116 colorectal cancer cells
Reagent: single siRNA against human genes
Duration: 3 days
Read-out: 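Imaged Hoechst DNA stain sorts each cell into a cycle phase by DNA amount; per plate, G2 fraction set to 0% for non-targeting and 100% for GMNN siRNA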
Direction: G2 robust z-score: higher = more G2 cells, more excess DNA replication
Call rule: 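An siRNA counts as active if its G2 robust z-score lies at least 5 MADs above the screen median; here such calls match roughly 38% of GMNN control or more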

gene | reagent | G2 robust z-score
THRA (GeneID 7067) | 1 | -0.017
THRA (GeneID 7067) | 2 | -0.411
THRA (GeneID 7067) | 3 | -0.968
ADAMTS2 (GeneID 9509) | 1 | -1.54
ADAMTS2 (GeneID 9509) | 2 | -0.455
ADAMTS2 (GeneID 9509) | 3 | -0.743
LINC00869 (GeneID 57234) | 1 | 0.0905
LINC00869 (GeneID 57234) | 2 | -0.968
LINC00869 (GeneID 57234) | 3 | 0.693
TRAPPC2 (GeneID 6399) | 1 | 4.55
TRAPPC2 (GeneID 6399) | 2 | -1.18
TRAPPC2 (GeneID 6399) | 3 | -0.395
MLLT6 (GeneID 4302) | 1 | -0.983
MLLT6 (GeneID 4302) | 2 | 0.336
MLLT6 (GeneID 4302) | 3 | -0.908
COQ10B (GeneID 80219) | 1 | 0.3
COQ10B (GeneID 80219) | 2 | 1.08
COQ10B (GeneID 80219) | 3 | -1.3
OR2AG1 (GeneID 144125) | 1 | 1.88
OR2AG1 (GeneID 144125) | 2 | -0.703
OR2AG1 (GeneID 144125) | 3 | 0.351
HEXA (GeneID 3073) | 1 | 4.61
HEXA (GeneID 3073) | 2 | 1.39
HEXA (GeneID 3073) | 3 | 0.0421
RESF1 (GeneID 55196) | 1 | -0.224
RESF1 (GeneID 55196) | 2 | 2.02
RESF1 (GeneID 55196) | 3 | -0.606
ARHGAP1 (GeneID 392) | 1 | 1.05
ARHGAP1 (GeneID 392) | 2 | -0.688
ARHGAP1 (GeneID 392) | 3 | -1.3
AAAS (GeneID 8086) | 1 | -0.928
AAAS (GeneID 8086) | 2 | 0.904
AAAS (GeneID 8086) | 3 | -0.056
HLA-DMA (GeneID 3108) | 1 | -0.502
HLA-DMA (GeneID 3108) | 2 | 1.11
HLA-DMA (GeneID 3108) | 3 | 0.098
OGT (GeneID 8473) | 1 | -0.522
OGT (GeneID 8473) | 2 | -1.48
OGT (GeneID 8473) | 3 | -0.266
GATD1 (GeneID 347862) | 1 | 0.106
GATD1 (GeneID 347862) | 2 | 0.742
GATD1 (GeneID 347862) | 3 | -1.03
VGLL4 (GeneID 9686) | 1 | -0.85
VGLL4 (GeneID 9686) | 2 | -0.123
VGLL4 (GeneID 9686) | 3 | 0.895
DNAJB14 (GeneID 79982) | 1 | 0.738
DNAJB14 (GeneID 79982) | 2 | -0.982
DNAJB14 (GeneID 79982) | 3 | 0.935

In a second layout: entries from further up
{"gene":"HEXA (GeneID 3073)","reagent":2,"G2 robust z-score":1.39}
{"gene":"HEXA (GeneID 3073)","reagent":3,"G2 robust z-score":0.0421}
{"gene":"RESF1 (GeneID 55196)","reagent":1,"G2 robust z-score":-0.224}
{"gene":"RESF1 (GeneID 55196)","reagent":2,"G2 robust z-score":2.02}
{"gene":"RESF1 (GeneID 55196)","reagent":3,"G2 robust z-score":-0.606}
{"gene":"ARHGAP1 (GeneID 392)","reagent":1,"G2 robust z-score":1.05}
{"gene":"ARHGAP1 (GeneID 392)","reagent":2,"G2 robust z-score":-0.688}
